Source: US5157052A, “Method for inhibiting IgE production” (priority 1990, dated 1992)
At least one compound was matched to its structure with a doubt left.

Test system: IgE
Assay: Serum IgE response induced by FF1-4D5 + H∂A1 anti-IgD antibodies (ELISA, Assay A / Assay F)
Type: in vivo, mouse (Balb/c female)
Conditions: 10 μg days 3 and 4; Example 27
Protocol: Mouse hybridoma cells expressing either FF1-4D5 antibody or H∂A1 antibody are thawed, established in culture, and incubated in mice as ascite tumors. FF1-4D5 antibody is a mouse IgG2a monoclonal antibody of the b allotype that binds the Fd fragment of the ∂ chain of the a allotype IgD which activates β cells through antigen internalization and processing, promoting cognate interactions with antigen-specific T cells (D. K. Goroff et al., J. Immunol. 136: 2382 (1986)). H∂A1 antibody is a mouse IgG2b of the b allotype that binds the Fc fragment of the ∂ chain of the a allotype IgD which activates β cells through crosslinking IgD (I. M. Zitron and B. L. Clevinger, J. Exp. Med. 152: 1135 (1980)). […] Serum from the injected mice is recovered and the mean concentration of IgE determined.
Serum levels of IgE are determined and IgE levels are shown to be inhibited in a dose dependent manner.
ELISA (enzyme linked immunosorbant assay) measurements of IgE are as follows. […] The optical density of each well is determined on a BioTek ELISA reader (Biotek Instruments, Inc., Burlington, Vermont) and the absorbance data transferred electronically to a DEC VAX mainframe computer. […] IgE in the unknown serum samples is determined by comparing the optical density of the unknown to the standard curve and multiplying that number by the dilution of serum used in the assay. […]

CCCCC(C)(O)C/C=C/[C@H]1[C@H](O)CC(=O)[C@@H]1CCCCCCC(=O)OC(C)C (relative stereo) [(±) methylethyl-11α,16-dihydroxy-16-methyl-9-oxoprost-13E-en-1-oate]
de novo IgE synthesis: inhibit de novo IgE synthesis
